# Assay results as given in the supplement of paper PMC12578635.
# ± gives the standard deviation of the averaged measurements. The list shows a part of the results. Many values rest on one well or one pass, so single values are uncertain.
# Test system: RAW 264.7 macrophages infected with S. aureus JE2-lux
# Assay: host macrophage viability (CellTiter-Fluor) relative to DMSO vehicle; higher = more viable host cells
# Conditions: 10 µM; treatment time 4 h; gentamicin 50 µg/ml
row,SMILES,host macrophage viability
1,O=C(Nc1cccc(N2CCCC2)c1)c1cc(-c2ccccn2)n[nH]1,113%
2,COC(=O)c1ccc(COc2coc(CN3c4ccccc4CC3C)cc2=O)cc1 (stereo not drawn),107%
3,CCOC(=O)c1c(NC(=O)c2cc(Cl)ccc2[N+](=O)[O-])sc(C)c1C,138%
4,CCOc1ccc(C(=O)C2CCN(CC(=O)Nc3nccs3)CC2)cc1,125%
5,Cc1cc(NS(=O)(=O)c2ccc(NC(=O)c3cc4c(ccc5ccccc54)oc3=O)cc2)no1,106%
6,CC(C)CNC(=O)c1cncc(NS(=O)(=O)c2ccc3c(c2)OCCO3)c1,116%
7,O=c1[nH]c2ccc(S(=O)(=O)Nc3ccccc3O)cc2[nH]1,121%
8,Cc1c(C(=O)O)sc2nc(SCC(=O)O)[nH]c(=O)c12,111%
9,Cc1c[nH]c(=O)nc1SCC(=O)NC1CCCCC1,121%
10,Cc1ccc(CN2CCc3nc(SCC(=O)Nc4cccc(C)c4C)[nH]c(=O)c3C2)cc1,137%
11,CCC(=O)Nc1cccnc1-c1ccc(C(=O)NCc2cccc(OC)c2)cc1,130%
12,COc1ccc(N2CCN(C(=O)CSc3nnc4c(n3)[nH]c3ccccc34)CC2)cc1,112%
13,O=C1NC(=O)C2C1C(c1ccc(Cl)cc1)NN2Cc1ccccc1 (stereo not drawn),118%
14,Cc1cc(C)nc(N2CCC(C(=O)NNC(=O)c3ccccc3)CC2)n1,116%
15,Cc1cc(=O)n2nc(CN(C(=O)c3ccccc3F)c3ccc(Cl)cc3)nc2[nH]1,94.4%
16,N#C/C(=C/c1ccco1)c1nc(-c2cccc([N+](=O)[O-])c2)cs1,116 ± 17%
17,CCCCOc1ccc(C(=O)NCCc2cc3ccc(C)c(C)c3[nH]c2=O)cc1,118%
18,CCOC(=O)C1CCN(c2nc(C)nc3c2c(C)c(C)n3-c2ccccc2)CC1,107%
19,CCOc1ccc(-n2cc(-c3ccccc3)c3c(N4CCN(C(=O)COc5ccccc5C)CC4)ncnc32)cc1,128%
20,CC1=C(C(N)=O)C(c2ccccc2)n2nc(-c3ccc(O)cc3)nc2N1 (stereo not drawn),115%
21,O=C(NCCCc1nc2cc3ccccc3cc2[nH]1)c1ccc2nccnc2c1,114%
22,NC(=O)c1cc2cc(Br)ccc2o/c1=N\c1ccc(Oc2ccccc2)cc1,103%
23,O=c1c2nnn(Cc3ccccc3F)c2ncn1Cc1cccc([N+](=O)[O-])c1,108 ± 14%
24,CCc1nnc(NC(=O)CSc2ncnc3c(-c4ccc(C)cc4)nsc23)s1,121%
25,COc1ccc(CCNC(=O)Cn2cnc3c(nnn3-c3cccc(Cl)c3)c2=O)cc1OC,114 ± 8.5%
26,O=C(NCc1ccccc1)c1cc2cc([N+](=O)[O-])ccc2s1,132%

row,SMILES,host macrophage viability
1,Cc1cc(NC(=O)CSc2nnc(-c3ccncc3)o2)no1,104%
2,CC1CCCN(S(=O)(=O)c2ccc(C(=O)Nc3ccccc3C#N)cc2)C1 (stereo not drawn),116%
3,Cc1cc(C)c2cc(CN(Cc3cccnc3)C(=O)Nc3ccccc3)c(Cl)nc2c1,115%
4,O=C(CSc1nc(-c2ccccc2)cc(=O)[nH]1)N1CCN(c2ccccc2)CC1,120%
5,COc1cccc2cc(C(=O)Nc3ccc(N4CCOCC4)c(Cl)c3)c(=O)oc12,115%
6,CCS(=O)(=O)c1ccc(C(=O)Nc2nc3cc(C)cc(C)c3s2)cc1,128%
7,O=C(CSc1nc2sc3c(c2c(=O)[nH]1)CCC3)Nc1ccccc1C(F)(F)F,102%
8,COc1cc2ncc(C(=O)NCCO)c(O)c2cc1OC,120%
9,CCOC(=O)c1oc2ccccc2c1NC(=O)/C=C\c1ccc2c(c1)OCO2,121 ± 14%
10,O=C(COc1cccc2c1CCNC2=O)Nc1ccccc1C(F)(F)F,122%
11,COc1ccc(/N=c2\scc(-c3ccc(OC)c(OC)c3)n2CCCO)cc1,102%
12,COc1ccc(C(=O)N(Cc2ccccc2)c2nc3[nH]c(C)cc(=O)n3n2)cc1,125%
13,O=C1Cc2cc(NS(=O)(=O)c3ccc4c(c3)NC(=O)CO4)ccc2N1,116%
14,Cn1c(=O)c2c(nc3n2CCCN3Cc2ccco2)n(C)c1=O,127%
15,O=C1c2cccc3cccc(c23)C(=O)N1CCCc1nc2sc3c(c2c(=O)[nH]1)CCCC3,123%
16,CC(=O)N1c2ccc(S(=O)(=O)NCCc3n[nH]c(-c4ccc(F)cc4)n3)cc2CC1C (stereo not drawn),129%
17,O=C(CCCN1C(=O)/C(=C\c2ccco2)SC1=S)Nc1ccccc1C(=O)O,116%
18,Cc1nc2ccn(Cc3ccccc3)c(=O)c2cc1C(=O)NCCC1=CCCCC1,129%
19,O=C(NCc1ccccn1)c1ccc2c(=O)n(Cc3ccccc3Cl)c(=S)[nH]c2c1,127%
20,Cc1nnc2sc(SCC(=O)Nc3nccs3)nn2c1=O,116%
21,O=C1NC(=O)/C(=C\c2ccc(-c3cccc(Cl)c3Cl)o2)S1,134%
22,Cc1cc(OC(=O)C(c2ccccc2)c2ccccc2)c([N+](=O)[O-])c(=O)[nH]1,117%
23,O=C1N/C(=N/c2ccc(F)cc2)S/C1=C\c1ccc(F)cc1,105%
24,CCc1nc(SCc2cccnc2)c2c(=O)n(C)c(=O)n(C)c2n1,122 ± 4.2%
25,CCC(Sc1nc2ncccc2o1)C(=O)N1CCOc2ccc(C)cc21 (stereo not drawn),126%
26,CC(C)c1nc2ccccc2c2nnc(SCC(=O)NCc3ccccc3)n12,117%

# Molecules above that have a CF3 group:
row,SMILES,host macrophage viability
7,O=C(CSc1nc2sc3c(c2c(=O)[nH]1)CCC3)Nc1ccccc1C(F)(F)F,102%
10,O=C(COc1cccc2c1CCNC2=O)Nc1ccccc1C(F)(F)F,122%

# A few values from the entries so far.
# For host macrophage viability, CC1CCCN(S(=O)(=O)c2ccc(C(=O)Nc3ccccc3C#N)cc2)C1 (stereo not drawn) has the entry 116%
# For host macrophage viability, COc1ccc(C(=O)N(Cc2ccccc2)c2nc3[nH]c(C)cc(=O)n3n2)cc1 has the entry 125%
# For host macrophage viability, Cc1nc2ccn(Cc3ccccc3)c(=O)c2cc1C(=O)NCCC1=CCCCC1 has the entry 129%
# For host macrophage viability, CC(=O)N1c2ccc(S(=O)(=O)NCCc3n[nH]c(-c4ccc(F)cc4)n3)cc2CC1C (stereo not drawn) has the entry 129%
# For host macrophage viability, CCS(=O)(=O)c1ccc(C(=O)Nc2nc3cc(C)cc(C)c3s2)cc1 has the entry 128%

# Next part:

row,SMILES,host macrophage viability
1,O=C(c1cc(F)cc(F)c1)N1CCc2nc(N3CCCC3)[nH]c(=O)c2C1,131%
2,N#Cc1ccccc1NC(=O)/N=c1\c2ccccc2[nH]c(=O)n1CCc1ccccc1,132%
3,Cc1cccc(-c2noc(CCn3c(=O)[nH]c4ccccc4c3=O)n2)c1,118%
4,CNC(=O)Cn1cc(OC)c(=O)cc1CSc1nnc(C)s1,117%
5,Cc1nn(-c2nc3ccccc3n2C)c2c1C(c1ccsc1)CC(=O)N2 (stereo not drawn),139%
6,CC1=CC2=NC(=O)CC(C)(C(=O)Nc3cccc(-c4csnn4)c3)N2C=C1 (stereo not drawn),116%
7,COc1cc(C(=O)N/N=C/c2ccc(Br)o2)cc(OC)c1OC,104%
8,Cc1cccc(C)c1NC(=O)N1CCC(C(=O)c2ccc(F)cc2)CC1,113%
9,COc1ccccc1N1CCN(CCCNC(=O)c2c(-c3ccccc3)nnc3ccccc23)CC1,100%
10,c1cnc(-c2nc(-c3ccc(N4CCCCC4)cc3)no2)cn1,130%
11,Clc1ccc(C(CNc2nn3cnnc3c3ccccc23)N2CCCCC2)cc1 (stereo not drawn),113%
12,N#C/C(C(=O)c1ccc2c(c1)OCCO2)=C1/Nc2ccccc2S1,109 ± 5.8%
13,COc1cc(OC)cc(C(=O)NCC(=O)N/N=C/c2ccccc2OC)c1,114%
14,O=C(NNc1nc2c(F)cccc2s1)c1cc(-c2cccs2)nc2ccccc12,113 ± 3%
15,O=C1NC(=O)c2cc(NC(=O)c3cccc4ccccc34)ccc21,124%
16,O=C(NCCc1ccccc1)c1cnc2c(F)cccc2c1O,122%
17,Cc1cc(C)cc(NC(=O)CSc2nccn(-c3ccc(C)c(Cl)c3)c2=O)c1,135%
18,Cc1nnc(SCC(=O)Nc2ccc(OC(F)F)cc2)n(N)c1=O,112%
19,O=C(CSc1nc2sc3c(c2c(=O)[nH]1)CCCC3)NNC(=O)c1ccco1,95.4%
20,Cn1cnnc1SCc1cc(=O)c(OCC(=O)Nc2ccc(Cl)c(Cl)c2)co1,121%
21,O=C(CCCS(=O)(=O)c1ccccc1)Nc1nc2ccc(Br)cc2s1,127%
22,CCc1ccccc1NS(=O)(=O)c1c(C)sc(C)c1-c1cc(C(F)(F)F)on1,121%
23,CCOC(=O)c1sc2nc3c(cc2c1N)C(=O)CCC3,136%
24,O=C(CC1Nc2cccc3cccc(c23)NC1=O)Nc1ccc([N+](=O)[O-])cc1 (stereo not drawn),119%
25,COc1ccc(Nc2[nH]nnc2C(=O)Nc2ccc(C)c(Cl)c2)cc1Cl,110%
26,O=C(Nc1ccc2sc(NC(=O)C3CCCCC3)nc2c1)c1cccnc1,122%

row,SMILES,host macrophage viability
1,O=S(=O)(c1ccc(F)cc1)N1CCN(c2cnccn2)CC1,110%
2,N#Cc1ccc(C(=O)Nc2cccc3c2C(=O)c2ccccc2C3=O)cc1,110%
3,COc1ccc(NS(=O)(=O)c2cc(-c3ccno3)oc2C)cc1Cl,115%
4,Cc1nc(N2CCC(C(=O)NC(C)C(=O)N3CCCCC3)CC2)c2c(C)c(C)oc2n1 (stereo not drawn),103%
5,Cc1ccc(NC(=O)CS(=O)CC(=O)NC2CCc3ccccc32)cc1Cl (stereo not drawn),126%
6,Cc1cccc(NC(=O)c2cnc(N3CCCCC3)c3ccccc23)n1,145%
7,COc1cccc2c1OC(c1ccncc1)N1N=C(c3cc(C)ccc3O)CC21 (stereo not drawn),123%
8,Cn1c(=O)c2c(nc(CN3CCN(c4ccccc4)CC3)n2CCN2CCOCC2)n(C)c1=O,113%
9,COc1ccccc1-c1ocnc1C(=O)N1CCN(c2ncccn2)CC1,105%
10,O=C(O)c1ccccc1NC(=O)c1c2c(n3ccccc13)C(=O)c1ccccc1C2=O,111%
11,COC(=O)c1sc(NC(=O)CSc2nnc3ccccn23)c(C(=O)OC)c1C,94.9%
12,CC(C)c1ccc2[nH]c3nc(SCC(=O)NCc4ccco4)nnc3c2c1,111%
13,CC(=O)c1ccc(NC(=O)CSc2nnnn2-c2cc(C)cc(C)c2)cc1,123%
14,CCOc1ccc(C(=O)Nc2ccc(-c3cn4ccc(C)nc4n3)cc2)cc1,101%
15,COCCNC(=O)COc1nc(C)nc2oc(C)c(C)c12,125%
16,COc1cccc(/C=C2\SC(=S)N(c3ccc(O)c(C(=O)O)c3)C2=O)c1OC,95.2%
17,c1ccc(OCCSc2nnc3sc4ccccc4n23)cc1,111%
18,O=C(Nc1nc2c(cc3c4c(cccc42)CC3)s1)c1ccc(N2C(=O)CCC2=O)cc1,104 ± 13%
19,C=CCOc1ccccc1NC(=O)c1cccc(-n2nc(C)c(Cl)c2C)c1,109%
20,O=C(NNc1nc2cc3c(cc2s1)OCO3)c1cccc(F)c1,105 ± 4.3%
21,Cc1ccc2nc(NC(=O)CSc3c(C)cnc4c3c(=O)n(C)c(=O)n4C)sc2c1,114%
22,NC(=O)C1CCN(C2=NC(=O)/C(=C\c3ccc(Cl)cc3Cl)S2)CC1,99.8%
23,O=C1/C(=C\c2ccncc2)SC(=S)N1Nc1ccc([N+](=O)[O-])cc1[N+](=O)[O-],124%
24,Cc1ccc(NS(=O)(=O)c2cc(-c3noc(C4CC4)n3)cs2)nc1,117%
25,O=C(CSc1nnc(Cc2ccccc2)c(=O)[nH]1)Nc1cccc(C(F)(F)F)c1,123%
